# Drug screen on melanoma cell lines: cell count

Values as published with doi:10.1371/journal.pone.0140310, rounded.

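The test systems are human melanoma cell lines, treated with a pair of drugs for 72 h and then stained and imaged. Values are the number of DAPI-stained nuclei as a percentage of the DMSO control: 100 is no effect, lower means fewer cells. Concentrations were fixed for each drug; these are the higher of two levels. No replicate spread is given; individual values may be noisy.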 This is part of the screen, not chosen by result.

Drugs:
nilotinib, 1 µM: Cc1cn(-c2cc(NC(=O)c3ccc(C)c(Nc4nccc(-c5cccnc5)n4)c3)cc(C(F)(F)F)c2)cn1
SNS-314, 0.004 µM: O=C(Nc1cccc(Cl)c1)Nc1ncc(CCNc2ncnc3ccsc23)s1
IMD-0354, 0.08 µM: O=C(Nc1cc(C(F)(F)F)cc(C(F)(F)F)c1)c1cc(Cl)ccc1O
cediranib, 2 µM: COc1cc2c(Oc3ccc4[nH]c(C)cc4c3F)ncnc2cc1OCCCN1CCCC1
LFM-A13, 10 µM: C/C(O)=C(\C#N)C(=O)Nc1cc(Br)ccc1Br
GW441756, 2 µM: Cn1cc(/C=C2\C(=O)Nc3cccnc32)c2ccccc21
vorinostat, 0.4 µM: O=C(CCCCCCC(=O)Nc1ccccc1)NO
bortezomib, 0.005 µM: CC(C)C[C@H](NC(=O)[C@H](Cc1ccccc1)NC(=O)c1cnccn1)B(O)O
sorafenib, 2 µM: CNC(=O)c1cc(Oc2ccc(NC(=O)Nc3ccc(Cl)c(C(F)(F)F)c3)cc2)ccn1
JZL184, 5 µM: O=C(Oc1ccc([N+](=O)[O-])cc1)N1CCC(C(O)(c2ccc3c(c2)OCO3)c2ccc3c(c2)OCO3)CC1

| Drugs | COLO 792 | WM451Lu | WM3619 | COLO 829 | COLO 800 |
|---|---|---|---|---|---|
| SNS-314 + GW441756 | 76.7 | 83.4 | 51.3 | 91.6 | 59.0 |
| SNS-314 + vorinostat | 43.0 | 49.7 | 64.2 | 45.9 | 35.0 |
| cediranib + bortezomib | 33.1 | 22.8 | 1.2 | 12.8 | 71.3 |
| IMD-0354 + cediranib | 60.2 | 114 | 82.1 | 102 | 52.0 |
| IMD-0354 + GW441756 | 112 | 116 | 90.1 | 104 | 71.5 |
| cediranib + LFM-A13 | 85.7 | 99.2 | 88.7 | 125 | 58.4 |
| nilotinib + SNS-314 | 47.0 | 77.8 | 87.6 | 129 | 69.1 |
| nilotinib + sorafenib | 97.4 | 95.6 | 80.2 | 116 | 106 |
| GW441756 + JZL184 | 110 | 93.1 | 90.6 | 83.9 | 85.8 |
| sorafenib + cediranib | 86.9 | 87.4 | 97.6 | 72.2 | 67.5 |
| LFM-A13 + SNS-314 | 44.8 | 42.9 | 73.0 | 76.9 | 37.7 |
| JZL184 + SNS-314 | 51.5 | 59.8 | 56.4 | 75.4 | 40.7 |
| JZL184 + LFM-A13 | 93.6 | 83.3 | 102 | 105 | 85.2 |
| JZL184 + cediranib | 65.2 | 93.0 | 106 | 110 | 88.2 |
| GW441756 + vorinostat | 86.0 | 66.7 | 55.4 | 86.8 | 75.4 |
| nilotinib + LFM-A13 | 84.8 | 120 | 90.3 | 105 | 79.9 |
| LFM-A13 + IMD-0354 | 86.2 | 95.9 | 88.2 | 112 | 51.5 |
| JZL184 + IMD-0354 | 101 | 103 | 116 | 91.9 | 89.5 |
| bortezomib + IMD-0354 | 44.3 | 18.5 | 4.0 | 10.2 | 159 |
| bortezomib + GW441756 | 30.9 | 22.7 | 4.8 | 9.9 | 34.3 |
| JZL184 + sorafenib | 106 | 99.0 | 89.4 | 81.7 | 150 |
| nilotinib + bortezomib | 32.6 | 26.0 | 4.2 | 10.9 | 87.6 |

For reference, 2 entries once more:

Drugs	COLO 792	WM451Lu	WM3619	COLO 829	COLO 800
nilotinib + SNS-314	47.0	77.8	87.6	129	69.1
JZL184 + sorafenib	106	99.0	89.4	81.7	150